Assay results taken from paper PMC6321010, “Interaction of the GTPase Elongation Factor Like-1 with the Shwachman-Diamond Syndrome Protein and Its Missense Mutations” (International Journal of Molecular Sciences, 2018).
These are yes or no findings as the source states them, for the method shown. Blank lines part the entries; values can stand above or below the binder they belong to.

Key:
[1] = target: yeast SBDS orthologue Sdo1 (recombinant, for SAXS) (yeast (S. cerevisiae)) (UniProt Q07953); experiment: SAXS coupled to on-line size exclusion chromatography; yeast Sdo1, EFL1 and the complex EFL1•Sdo1 at 10, 6.5 and 8 mg/mL injected onto a Shodex KW-403 column; 50 mM Tris pH 8.0, 10% glycerol, 300 mM NaCl, 5 mM MgCl2; both purified
[2] = target: yeast EFL1 (recombinant, for SAXS) (yeast (S. cerevisiae)) (UniProt P53893); experiment: as above

binding [1]: no binding
B1: yeast SBDS orthologue Sdo1 (recombinant, for SAXS) (protein, UniProt Q07953 1-250)
chain: MPINQPSGQIKLTNVSLVRLKKARKRFEVACYQNKVQDYRKGIEKDLDEVLQIHQVFMNVSKGLVANKEDLQKCFGTTNVDDVIEEIMHKGEIQLSEKERQLMLNKVNNEMLTIVSAKCINPVSKKRYPPTMIHKALQELKFSPVINKPAKLQALEAIKLLVSKQIIPIVRAKMKVKVAISEPSRQPELIEKISKLIASSPGESTKPELDPWTCTGLIDPVNYRDLMTLCDKKGTVQVLDMAVIDNTTHN

binding [2]: no binding
B2: yeast EFL1 (recombinant, for SAXS) (enzyme, yeast (S. cerevisiae), UniProt P53893 1-1110, looked up)
chain: MPRVESETYKRLQNDPSCIRNICIVAHVDHGKTSLSDSLLASNGIISQRLAGKIRFLDARPDEQLRGITMESSAISLYFRVLRKQEGSDEPLVSEHLVNLIDSPGHIDFSSEVSAASRLCDGAVVLVDVVEGVCSQTVTVLRQCWTEKLKPILVLNKIDRLITELQLTPQEAYIHLSKVIEQVNSVIGSFFANERQLDDLFWREQLEKNENAEYIEKDDSGIYFNPTDNNVIFASAIDGWGFNIGQLAKFYEQKLGAKRENLQKVLWGDFYMDPKTKKIINNKGLKGRSLKPLFTSLILENIWKIYQNIITSRDSEMVEKIAKTLNIKLLARDLRSKDDKQLLRTIMGQWLPVSTAVLLTVIEKLPSPLESQTDRLNTILVSESDTAAMDPRLLKAMKTCDKEGPVSAYVSKMLSIPREELPVESKRIASSDELMERSRKAREEALNAAKHAGMVENMAMMDLNDNSKNTSDLYKRAKDTVMTPEVGEQTKPKPSRNNDVFCVVSEPSSALDLEFEYEGEDDSDSQDNFGLDFVPTDIDPNDPLSSMFEYEEEDPLLESIKQISEDVNDEVDDIFDEKEECLVAFARIYSGTLRVGQEISVLGPKYDPKCPEEHIETAIITHLYLFMGKELVPLDVCPSGNIVGIRGLAGKVLKSGTLIEKGVQGVNLAGVNFHFTPIVRVAVEPANPVEMSKLVRGLKLLDQADPCVHTYVENTGEHILCTAGELHLERCLKDLTERFAGIEITHSEPAIPYRETFLSASDMNPPQNSQLGRGVHELLLSQYKITFRTFPLSGKVTDFLSQHQNSIKNILKTSTSSMDPVIESTGSSFLDKKSLLVAFEEVINQEEKSRELLSGFKVKLAGFGPSRVGCNILLSQDNLLGSLFEGTPAAFEYSDSIKNGFQLAVSEGPLANEPVQGMCVLVESVHKMSQDEIESIEDPRYQQHIVDLSGRLITSTRDAIHEAFLDWSPRIMWAIYSCDIQTSVDVLGKVYAVILQRHGKIISEEMKEGTPFFQIEAHVPVVEAFGLSEDIRKRTSGAAQPQLVFSGFECIDLDPFWVPTTEEELEELGDTADRENIARKHMNAIRRRKGLFIEEKVVENAEKQRTLKKN
notes: yeast EFL1 (GTPase); the model's rigid parts run over residues 1-1110; source: S. cerevisiae BCY123 (pRS426 backbone, GAL1/10 promoter), purified
